According to article doi:10.1101/2022.09.01.506260:
Results are given in words; binding and its absence hold for the method and conditions named. In cells and extracts the contact can be indirect. These calls come from enrichment with a bait or labelling near it, and not all partners need be listed. No binding means not detected with the bait.

Target: T1, PEAK1^IDR1 (N-terminally truncated PEAK1, residues 1082-1746) (human) (UniProt Q9H792)
T1 sequence: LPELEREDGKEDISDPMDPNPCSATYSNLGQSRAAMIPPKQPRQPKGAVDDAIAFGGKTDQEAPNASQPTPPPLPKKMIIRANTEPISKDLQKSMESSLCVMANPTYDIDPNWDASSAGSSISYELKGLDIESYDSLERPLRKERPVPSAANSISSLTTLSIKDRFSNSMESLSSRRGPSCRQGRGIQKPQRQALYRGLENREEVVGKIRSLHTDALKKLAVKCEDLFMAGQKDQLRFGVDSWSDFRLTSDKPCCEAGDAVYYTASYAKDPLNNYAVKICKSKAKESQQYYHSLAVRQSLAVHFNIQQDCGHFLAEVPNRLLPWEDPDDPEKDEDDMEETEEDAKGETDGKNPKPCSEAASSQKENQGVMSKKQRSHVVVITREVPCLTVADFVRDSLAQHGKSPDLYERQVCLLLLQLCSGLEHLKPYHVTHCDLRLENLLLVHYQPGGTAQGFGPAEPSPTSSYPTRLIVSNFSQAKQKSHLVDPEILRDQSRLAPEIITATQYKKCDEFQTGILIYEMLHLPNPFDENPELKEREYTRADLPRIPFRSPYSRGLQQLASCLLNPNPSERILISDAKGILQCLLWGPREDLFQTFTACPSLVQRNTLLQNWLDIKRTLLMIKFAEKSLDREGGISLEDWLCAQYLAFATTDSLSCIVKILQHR
Experiment: affinity purification with mass spectrometry + SEC

Question: With “insect cell derived 14-3-3ε,ζ heterodimer (complex)” as the substance, how does the binding read?
Answer: no binding
